Results published in patent US20090216029A1, “PROCESS FOR THE PRODUCTION OF ATORVASTATIN CALCIUM IN AMORPHOUS FORM” (priority 2008, published 2009).
Structures can show the parent of a compound that is named as a salt.

Conditions: 25° C./60% relative humidity for 3 months

## CC(C)c1c(C(=O)Nc2ccccc2)c(-c2ccccc2)c(-c2ccc(F)cc2)n1CC[C@@H](O)C[C@@H](O)CC(=O)O (relative stereo) [amorphous atorvastatin calcium, [R—(R*,R*)]-2-(4-fluorophenyl)-β,δ-dihydroxy-5-(1-methylethyl)-3-phenyl-4-[(phenylamino)carbonyl]-1H-pyrrole-1-heptanoic acid, calcium salt (2:1)]
  Content of each impurity after storage (Formulae I, II, IV, V, VI, VIII, X): not more than 0.05%
  Content of each impurity after storage (Formulae I-VI, VIII, X, unidentified impurity RRT~1.17): not more than 0.1%
  Content of each impurity after storage (Formulae I-VI, VIII, X-XII, unidentified impurities RRT~1.03 and RRT~1.17): not more than 0.15%
  Content of each impurity after storage (Formulae I-VIII, X-XII, unidentified impurities RRT~1.03 and RRT~1.17; not diketoepoxide IX): Not more than 0.3%
  Content of each impurity after storage (Formulae I-XII, unidentified impurities RRT~1.03 and RRT~1.17): not more than 0.5%
By HPLC
  Content of O-methyl atorvastatin calcium of Formula X found in amorphous atorvastatin after storage: Less than 0.05% w/w
  Content of dihydroxy diepoxide of Formula VIII found in amorphous atorvastatin after storage: Less than 0.05% w/w
  Content of methyl ester of atorvastatin of Formula VI found in amorphous atorvastatin after storage: Less than 0.05% w/w
By HPLC, LOD 0.04%
  Content of amide impurity of Formula I found in amorphous atorvastatin after storage: to below 0.05% w/w
By HPLC, LOD 0.048%
  Content of 5′-deshydroxy atorvastatin of Formula V found in amorphous atorvastatin after storage: < 0.048%) to less than 0.05% w/w
By HPLC, LOD 0.049%
  Content of 3′-deshydroxy atorvastatin of Formula IV found in amorphous atorvastatin after storage: < 0.049%) to less than 0.05% w/w
By HPLC, LOQ 0.062
  Content of diastereomer of atorvastatin calcium of Formula II found in amorphous atorvastatin after storage: than 0.5% w/w
